PMC10272126

The chains behind the UniProt entries cited, without tags or fusion partners. Where a name states a change or a piece, a line headed by the entry shows the natural chain unless it says otherwise.
UniProt Q8WXI2: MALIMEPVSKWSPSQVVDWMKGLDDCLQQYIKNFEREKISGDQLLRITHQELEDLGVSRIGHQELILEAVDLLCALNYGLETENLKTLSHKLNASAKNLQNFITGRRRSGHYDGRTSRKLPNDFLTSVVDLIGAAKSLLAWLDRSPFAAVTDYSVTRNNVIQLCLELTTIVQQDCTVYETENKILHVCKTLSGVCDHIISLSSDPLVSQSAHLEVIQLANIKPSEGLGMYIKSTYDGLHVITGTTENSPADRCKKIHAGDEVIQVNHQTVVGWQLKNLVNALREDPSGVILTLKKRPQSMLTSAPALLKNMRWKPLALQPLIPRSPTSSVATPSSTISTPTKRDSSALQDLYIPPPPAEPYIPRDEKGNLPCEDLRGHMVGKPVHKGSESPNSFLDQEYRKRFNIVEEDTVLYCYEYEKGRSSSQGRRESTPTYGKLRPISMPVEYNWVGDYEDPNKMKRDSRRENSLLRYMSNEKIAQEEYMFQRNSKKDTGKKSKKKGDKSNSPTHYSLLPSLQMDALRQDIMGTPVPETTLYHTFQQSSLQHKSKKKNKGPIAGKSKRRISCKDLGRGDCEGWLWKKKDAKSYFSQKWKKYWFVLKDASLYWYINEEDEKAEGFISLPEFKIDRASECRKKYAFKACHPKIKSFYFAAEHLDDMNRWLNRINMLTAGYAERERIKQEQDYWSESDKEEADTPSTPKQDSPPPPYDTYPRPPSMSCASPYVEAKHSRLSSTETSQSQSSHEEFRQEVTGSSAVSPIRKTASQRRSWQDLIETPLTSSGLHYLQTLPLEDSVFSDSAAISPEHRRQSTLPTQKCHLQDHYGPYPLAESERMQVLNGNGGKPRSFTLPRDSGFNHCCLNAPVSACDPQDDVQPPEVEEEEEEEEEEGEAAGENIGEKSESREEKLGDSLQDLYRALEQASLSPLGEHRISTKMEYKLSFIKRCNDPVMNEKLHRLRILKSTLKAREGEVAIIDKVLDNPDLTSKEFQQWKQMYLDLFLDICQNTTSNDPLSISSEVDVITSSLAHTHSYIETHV
UniProt Q14160: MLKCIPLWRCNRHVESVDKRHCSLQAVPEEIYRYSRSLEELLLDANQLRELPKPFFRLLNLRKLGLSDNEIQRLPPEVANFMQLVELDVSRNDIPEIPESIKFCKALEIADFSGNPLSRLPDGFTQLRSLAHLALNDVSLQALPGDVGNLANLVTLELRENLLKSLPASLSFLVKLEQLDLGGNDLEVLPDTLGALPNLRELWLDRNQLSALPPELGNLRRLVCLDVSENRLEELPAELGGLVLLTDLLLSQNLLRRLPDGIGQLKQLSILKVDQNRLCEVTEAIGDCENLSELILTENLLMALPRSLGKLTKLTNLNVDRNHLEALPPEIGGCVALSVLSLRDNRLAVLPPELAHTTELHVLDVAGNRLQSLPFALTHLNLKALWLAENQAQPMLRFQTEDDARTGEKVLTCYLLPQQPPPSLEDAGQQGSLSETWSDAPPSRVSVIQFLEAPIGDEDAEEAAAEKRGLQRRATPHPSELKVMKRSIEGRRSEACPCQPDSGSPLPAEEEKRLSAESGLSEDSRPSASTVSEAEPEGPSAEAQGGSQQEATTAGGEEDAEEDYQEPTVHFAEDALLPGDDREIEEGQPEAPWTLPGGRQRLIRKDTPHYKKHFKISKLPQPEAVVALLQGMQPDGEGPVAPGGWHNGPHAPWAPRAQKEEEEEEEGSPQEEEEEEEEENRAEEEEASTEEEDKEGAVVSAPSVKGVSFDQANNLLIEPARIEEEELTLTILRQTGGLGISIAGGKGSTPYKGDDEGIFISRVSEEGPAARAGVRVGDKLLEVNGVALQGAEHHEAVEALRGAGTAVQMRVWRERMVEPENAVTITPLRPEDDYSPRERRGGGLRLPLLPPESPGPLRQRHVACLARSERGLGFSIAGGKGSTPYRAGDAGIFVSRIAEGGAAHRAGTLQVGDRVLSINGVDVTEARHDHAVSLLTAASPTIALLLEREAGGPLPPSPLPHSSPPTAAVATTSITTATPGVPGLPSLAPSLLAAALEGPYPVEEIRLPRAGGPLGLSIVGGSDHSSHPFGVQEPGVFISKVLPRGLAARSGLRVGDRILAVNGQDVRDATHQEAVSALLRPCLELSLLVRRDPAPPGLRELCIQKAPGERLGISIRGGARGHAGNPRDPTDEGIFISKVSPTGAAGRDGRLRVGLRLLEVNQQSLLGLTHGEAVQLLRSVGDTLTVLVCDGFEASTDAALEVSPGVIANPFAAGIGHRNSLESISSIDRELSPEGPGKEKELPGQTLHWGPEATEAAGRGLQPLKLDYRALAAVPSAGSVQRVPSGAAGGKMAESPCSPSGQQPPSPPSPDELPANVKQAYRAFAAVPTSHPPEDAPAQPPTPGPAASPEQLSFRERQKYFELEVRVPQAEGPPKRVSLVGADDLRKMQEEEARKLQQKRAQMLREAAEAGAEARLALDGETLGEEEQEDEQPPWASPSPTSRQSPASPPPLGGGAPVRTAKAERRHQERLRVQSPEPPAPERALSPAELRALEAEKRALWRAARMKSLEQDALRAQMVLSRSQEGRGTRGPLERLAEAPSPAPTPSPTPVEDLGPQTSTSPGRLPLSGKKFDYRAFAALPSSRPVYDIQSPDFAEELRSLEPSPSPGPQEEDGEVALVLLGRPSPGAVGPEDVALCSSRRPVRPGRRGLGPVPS

Target: GFP-CNK2A_ΔPBM (human) (UniProt Q8WXI2)
Experiment: co-IP; U2OS cells expressing GFP-CNK2A (WT or mutant); immunoblot of MAP4K4, CYTH1, CYTH2, CYTH3 or SCRIB in the precipitate

## SCRIB (from UniProt Q14160 1-1655)
  binding: no binding

No constants are given. Whether binding was seen depends on the method and setting. In cells and extracts the contact can be indirect.
